{
  "source": "patent US8889631B2",
  "about": "(The University of Kansas, priority 2008, dated 2014)",
  "key": {"CHO cells": {"system": "CHO cells", "assay": "Colocalization of fluorescent compounds and endosomal marker proteins by confocal microscopy", "type": "cell-based, Chinese hamster", "settings": "for colocalization of red fluorescent Compound 2 and green fluorescent Compound 3: Compound 2 (2 μM) and Compound 3 (5 μM) 12 h, conditions that minimally disrupt endosomes"}, "[1]": {"assay": "general procedure: Fmoc solid-phase peptide synthesis; Rink amide Novagel; HBTU/HOBt/DIEA", "settings": "whole synthesis"}, "[2]": {"assay": "general procedure: Fmoc solid-phase peptide synthesis; Rink amide Novagel resin (0.62 mmol/g); HBTU/HOBt/DIEA", "settings": "whole synthesis"}},
  "note": "Square brackets hold non-standard residues; d marks the D form. Peptide text beside a SMILES is read from it. * marks the point of attachment. Pentanoyl(5-NH-cholesteryl) = CC(C)CCC[C@@H](C)[C@H]1CC[C@H]2[C@@H]3CC=C4C[C@@H](NCCCCC(=O)*)CC[C@]4(C)[C@H]3CC[C@]12C; X1 = O=C(O)c1c(Cl)cc(C(=O)*)c(Cl)c1-c1c2cc(Cl)c(=O)c(Cl)c-2oc2c(Cl)c(O)c(Cl)cc12; Ahx = NCCCCCC(=O)O",
  "data": [
    {"compound": "CC(C)CCC[C@@H](C)[C@H]1CC[C@H]2[C@@H]3CC=C4C[C@@H](NCCCCC(=O)N[C@@H](CCC(=O)O)C(=O)N[C@@H](CCCCNC(=O)c5cc(Cl)c(C(=O)O)c(-c6c7cc(Cl)c(=O)c(Cl)c-7oc7c(Cl)c(O)c(Cl)cc67)c5Cl)C(=O)NCCCCCC(=O)NCCCCCC(=O)N[C@@H](CO)C(=O)N[C@@H](CO)C(=O)N[C@@H](C)C(=O)N[C@@H](Cc5c[nH]c6ccccc56)C(=O)N[C@@H](Cc5c[nH]c6ccccc56)C(=O)N[C@@H](CO)C(=O)N[C@@H](Cc5ccc(O)cc5)C(=O)N[C@@H](Cc5c[nH]c6ccccc56)C(=O)N5CCC[C@H]5C(=O)N5CCC[C@H]5C(=O)N[C@H](C(=O)N[C@@H](C)C(N)=O)C(C)C)CC[C@]4(C)[C@H]3CC[C@]12C", "note": "[Compound 2, N-(6-{[6-({N-{5-(3β-Cholest-5-en-3-ylammonio)pentanoyl}-5-oxidanidyl-5-oxidanylidene-L-norvalyl-N^6-[4-carboxy-2,5-dichloro-3-(2,4,5,7-tetrachloro-6-hydroxy-3-oxo-3H-xanthen-9-yl)benzoyl]-L-lysyl}amino)hexanoyl]amino}hexanoyl)-L-seryl-L-seryl-L-alanyl-L-tryptophyl-L-tryptophyl-L-seryl-L-tyrosyl-L-tryptophyl-L-prolyl-L-prolyl-L-valyl-L-alaninamide] ({Pentanoyl(5-NH-cholesteryl)}-EK(X1)[Ahx][Ahx]SSAWWSYWPPVA-NH2)", "values": [
      {"measurement": "colocalization of red fluorescent Compound 2 and green fluorescent Compound 3", "setting": "CHO cells", "value": "Essentially complete colocalization of red and green fluorescence in early/recycling endosomes"},
      {"measurement": "colocalization with green fluorescent transferrin Alexa Fluor 488 conjugate", "setting": "CHO cells; compound 5 μM 12 h, then transferrin conjugate 610 nM 5 min", "value": "Essentially complete colocalization of red and green fluorescence"}
    ]},
    {"compound": "CC(C)CCC[C@@H](C)[C@H]1CC[C@H]2[C@@H]3CC=C4C[C@@H](NCCCNC(=O)[C@H](CCC(=O)O)NC(=O)[C@H](CCC(=O)O)NC(=O)CCSSCCNC(=O)c5ccc(-c6c7ccc(=O)cc-7oc7cc(O)ccc67)c(C(=O)O)c5)CC[C@]4(C)[C@H]3CC[C@]12C", "note": "[Compound 3, (11S,14S)-11-(2-Carboxylatoethyl)-1-[3-carboxylato-4-(6-oxido-3-oxo-3H-xanthen-9-yl)phenyl]-14-[({3-(3β-cholest-5-en-3-ylammonio)propyl}amino)carbonyl]-1,9,12-trioxo-5,6-dithia-2,10,13-triazaheptadecan-17-oate]", "values": [
      {"measurement": "colocalization of red fluorescent Compound 2 and green fluorescent Compound 3", "setting": "CHO cells", "value": "Essentially complete colocalization of red and green fluorescence in early/recycling endosomes"},
      {"measurement": "colocalization with red fluorescent DiI-LDL (marker of late endosomes and lysosomes)", "setting": "CHO cells; compound 5 μM 12 h, then DiI-LDL 8 nM 5 min", "value": "distinct red fluorescence"},
      {"measurement": "intracellular colocalization with red fluorescent transferrin (marker of early/recycling endosomes)", "setting": "CHO cells; compound 5 μM 12 h, then Texas Red transferrin 500 nM 5 min", "value": "essentially complete intracellular colocalization with red fluorescent transferrin protein"}
    ]},
    {"compound": "EE-ε-Ahx-ε-Ahx-SSAWWSYWPPVA", "values": [
      {"measurement": "isolated mass", "setting": "[1]; scale 0.076 mmol", "value": 27, "unit": "mg"},
      {"measurement": "isolated yield", "setting": "[1]; scale 0.076 mmol", "value": 15.0, "unit": "%"}
    ]},
    {"compound": "EK-ε-Ahx-ε-Ahx-SSAWWSYWPPVA", "values": [
      {"measurement": "isolated mass", "setting": "[2]", "value": 7.2, "unit": "mg"},
      {"measurement": "isolated yield", "setting": "[2]; scale 0.038 mmol", "value": 6.6, "unit": "%"}
    ]},
    {"compound": "N-(6-{[6-({N-{5-(3β-Cholest-5-en-3-ylammonio)pentanoyl}-5-oxidanidyl-5-oxidanylidene-L-norvalyl-N^6-[4-carboxy-2,5-dichloro-3-(2,4,5,7-tetrachloro-6-hydroxy-3-oxo-3H-xanthen-9-yl)benzoyl]-L-lysyl}amino)hexanoyl]amino}hexanoyl)-L-seryl-L-seryl-L-alanyl-L-tryptophyl-L-tryptophyl-L-seryl-L-tyrosyl-L-tryptophyl-L-prolyl-L-prolyl-L-valyl-L-alaninamide", "values": [
      {"measurement": "isolated mass", "setting": "[1]; scale 0.038 mmol", "value": 12, "unit": "mg"},
      {"measurement": "isolated yield", "setting": "[1]; scale 0.038 mmol", "value": 13.6, "unit": "%"}
    ]},
    {"compound": "N-Acetyl-L-seryl-L-seryl-L-alanyl-L-tryptophyl-L-tryptophyl-L-seryl-L-tyrosyl-L-tryptophyl-L-prolyl-L-prolyl-L-valyl-L-alaninamide", "values": [
      {"measurement": "isolated mass", "setting": "[1]; scale 0.032 mmol", "value": 8.3, "unit": "mg"},
      {"measurement": "isolated yield", "setting": "[1]; scale 0.032 mmol", "value": 18.0, "unit": "%"}
    ]}
  ]
}
